# Measured values from US20160297828A1, “SPIROCYCLIC COMPOUNDS CONTAINING SPIRO[INDOLYL-3,1'-PYRROLO[3,4-C]PYRROLE] CORE AND SULPHUR-CONTAINING AMINO ACID RESIDUES” (priority 2013, published 2016).
# For at least one compound, name, drawing or mass did not settle the structure. Marks after values point to notes of the source that are not given here.
# Tested on: rats with intracerebral hemorrhage
# Experiment: Conditioned response of passive avoidance (CRPA) in rats with intracerebral hemorrhage
# Type: in vivo
# Conditions: 21st day; same doses; n = 15
# Method: Neuroprotective effect of 3,2′-spiro-pyrrolo-2-oxindole derivative (SI-86 compound) was studied on IUD model of moderate severity modeled under propofol anesthesia (60 mg/kg intraperitoneally (ip)) by autoblood administration into the brain internal capsule (stereotactic coordinates of the projection: H=7.0 mm, L=3.0 mm, A=1.5 mm from bregma) ([…]) (Method for reproduction of intracerebral hemorrhage in rats/O. K. Yarosh, S. V. Kyrychenko, S. P. Halimonchyk [et al.]//Circulation and hemostasis.-2005.-No. 1.-P. 77-81). The chosen model allows to reproduce clinical pattern of […] and is adequate for clinical study of potential neuroprotective agents.
# As comparators the following drugs were used: mexydol (“Mexydol” UC Pharmasoft, Russia), 100 mg/kg; citicoline (“Somazina” Ferrer International, SA, Spain), 250 mg/kg; aktovegin (“Aktovegin”, Nycomed, Austria), 16 mg/kg pyracetam (“Pyracetam” Darnitsa, Ukraine), 400 mg/kg. According to the latest clinical guidelines regarding the treatment of patients with CVA approved by the Ministry of Health of Ukraine (Order No. 602 dated 3 Aug. 2012), all these drugs are allowed to be included into schemes for intensive patients therapy with CVA as neuroprotective agents. […] Rats of control pathology group were injected by autoblood and as therapy 0.9% NaCI solution was administered calculated for 2 ml/kg iv. […]
smiles,measurement,value
"C[N+](C)(C)CCOP(=O)(O)OP(=O)([O-])OC[C@H]1O[C@@H](n2ccc(N)nc2=O)[C@H](O)[C@@H]1O [citocoline, reference compound]","Latent period for entrance into dark compartment, 24 hours after study",106.3013.87*^#$ s
